Results from PubChem BioAssay AID256 (DTP/NCI, 2004).
The list is a part of this screen's results and no random one: it is rich in T/C values a quarter to a half above the control, in often repeated tests (any T/C) and in doses without a T/C. Other doses and runs of a compound stand elsewhere. T/C: endpoint of the treated group in % of that of the vehicle group. Some doses have a count of surviving animals in place of a T/C: the source files T/C as zero there, which appears to mark a toxic dose or a test without result, not a measured value. Some doses without a T/C left all or most animals alive at the check, yet need not have been tolerated: survival well below the control is almost never listed, so the zero probably covers shortened survival too. Counts of survivors are from the toxicity check (mostly the fifth day) where no day follows; animals may have died later. Schedule codes are those of the source, taken here to give the interval after Q, in days (D) or hours (H), and the number of doses after X. Some molecules as drawn cover several salts, stereoisomers or complexes of the source; a dose is that of the sample tested. For survival time, this PubChem deposit counts one and a half times the control or more as active, and values a quarter to a half above the control carry no call in these data; other NCI protocols may use other cut-offs. Some T/C values are followed by the survivors on the day toxicity was checked, most often the fifth; where none is given, no animal had died by that day. Some doses were run more than once; the values are given in rising order.

Test system: CD2F1 mice, L1210 leukemia ip, survival T/C
Assay: NCI In Vivo Anticancer Drug Screen. Data for tumor model L1210 Leukemia (intraperitoneal) in CD2F1 (CDF1) mice
Settings: higher T/C = longer survival
Procedure, shortened: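 In this screen, transplantable tumors were grown in mice given either the compound or its vehicle. Results were expressed as the treated measurement relative to the control measurement.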

[1] = T/C endpoint: mean survival time, dose: 200.0 mg/kg/injection, schedule: Q01DX001 (ip), vehicle: saline with Tween-80
[2] = T/C endpoint: mean survival time, dose: 10.0 mg/kg/injection, schedule: Q01DX009 (ip), vehicle: saline

SMILES: O=S1(=O)CC23CC=CCC2(CC=CC3)C1 (stereo not given)
- survivor count (T/C endpoint: mean survival time, dose: 400.0 mg/kg/injection, schedule: Q04DX003 (ip), vehicle: other): 3 of 6

SMILES: NC(=S)N/N=C/C(=O)c1ccc(Br)cc1
- survivor count (T/C endpoint: mean survival time, dose: 400.0 mg/kg/injection, schedule: Q01DX001 (ip), vehicle: saline): 2 of 6

SMILES: CC(CCC(=O)O)C1CCC2C3CCC4CC(O)CCC4(C)C3CC(O)C12C (stereo not given)
- survivor count (T/C endpoint: mean survival time, dose: 50.0 mg/kg/injection, schedule: Q01DX001 (ip), vehicle: saline with Tween-80): 6 of 6
- survivor count [1]: 0 of 6

SMILES: O=C1OC(C(Cl)(Cl)Cl)OC1C(Cl)(Cl)Cl (stereo not given)
- survivor count [1]: 3 of 6
- survivor count (T/C endpoint: mean survival time, dose: 400.0 mg/kg/injection, schedule: Q01DX001 (ip), vehicle: saline with Tween-80): 0 of 6

SMILES: C[CH2][Sn]1([CH2]C)[O]OC(c2ccccc2)[O]1 (stereo not given)
- survivor count (T/C endpoint: mean survival time, dose: 25.0 mg/kg/injection, schedule: Q01DX009 (ip), vehicle: saline with Tween-80): 0 of 6
- survivor count (T/C endpoint: mean survival time, dose: 25.0 mg/kg/injection, schedule: Q04DX002 (ip), vehicle: saline with Tween-80): 0 of 3
- survivor count (T/C endpoint: mean survival time, dose: 50.0 mg/kg/injection, schedule: Q04DX002 (ip), vehicle: saline with Tween-80): 0 of 3
- survivor count (T/C endpoint: mean survival time, dose: 100.0 mg/kg/injection, schedule: Q04DX002 (ip), vehicle: saline with Tween-80): 0 of 3

SMILES: N=C(N)c1ccc(OCCOc2cccc(N)c2)cc1
- survivor count (T/C endpoint: mean survival time, dose: 200.0 mg/kg/injection, schedule: Q01DX009 (ip), vehicle: saline with Tween-80): 3 of 6
- survivor count (T/C endpoint: mean survival time, dose: 400.0 mg/kg/injection, schedule: Q01DX009 (ip), vehicle: saline with Tween-80): 2 of 6

SMILES: C[C@@H]1C[C@@H]([C@H](O)CC2CC(=O)NC(=O)C2)C(=O)[C@@H](C)C1
- T/C [2]: 94, 105, 113, 117 % of control
- survivor count [2]: 3 of 6
- T/C (T/C endpoint: mean survival time, dose: 20.0 mg/kg/injection, schedule: Q01DX009 (ip), vehicle: saline): 97, 108, 116, 118, 121 % of control
- T/C (T/C endpoint: mean survival time, dose: 40.0 mg/kg/injection, schedule: Q01DX009 (ip), vehicle: saline): 108, 118, 124 [5 of 6 alive], 132 [5 of 6 alive], 145 % of control
- T/C (T/C endpoint: mean survival time, dose: 80.0 mg/kg/injection, schedule: Q01DX009 (ip), vehicle: saline): 135 % of control
- survivor count (T/C endpoint: mean survival time, dose: 160.0 mg/kg/injection, schedule: Q01DX009 (ip), vehicle: saline): 0 of 6
- T/C (T/C endpoint: median survival time, dose: 50.0 mg/kg/injection, schedule: Q01DX009 (ip), vehicle: saline): 131 and 132 % of control
- T/C (T/C endpoint: median survival time, dose: 100.0 mg/kg/injection, schedule: Q01DX009 (ip), vehicle: saline): 139 and 145 % of control
- survivor count (T/C endpoint: median survival time, dose: 200.0 mg/kg/injection, schedule: Q01DX009 (ip), vehicle: saline): 0 of 6

SMILES: CCCCCCCCCCCCN(C)C
- survivor count (T/C endpoint: mean survival time, dose: 100.0 mg/kg/injection, schedule: Q01DX009 (ip), vehicle: saline with Tween-80): 4 of 6
- survivor count (T/C endpoint: mean survival time, dose: 200.0 mg/kg/injection, schedule: Q01DX001 (ip), vehicle: saline): 0 of 6

SMILES: NC(CC(=O)NO)C(=O)O (stereo not given)
- T/C (T/C endpoint: mean survival time, dose: 400.0 mg/kg/injection, schedule: Q01DX009 (ip), vehicle: saline): 125 % of control
- T/C (T/C endpoint: mean survival time, dose: 800.0 mg/kg/injection, schedule: Q01DX009 (ip), vehicle: saline): 135 % of control
